Data as given in PubChem BioAssay AID1259425 (University of Nebraska Medical Center, 2018).
In all, the deposit lists about 14,000 reagents; below is a part drawn at random. Not all columns of the deposit are shown. No sequences are given here. Not stated in the record: the time to read-out.

Test: 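Seek colon cancer weak points whose silencing resembles KSR1 loss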 (primary screen)
Cell system: HCT116 human colon cancer cells
Knock-down reagent: siRNA pool against human genes, 50 nM siRNA
Detection: 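After 50 nM siRNA pool, branched-DNA assay measures six marker transcripts per well, minus blank, normalised to the geometric mean of two housekeeping transcripts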
Direction: BNIP3L mRNA: higher = more BNIP3L transcript after knockdown

IL22RA1 (GeneID 58985) — BNIP3L mRNA, set 1: 0.0988
GOLGA6B (GeneID 55889) — BNIP3L mRNA, set 1: 0.13
HEXA (GeneID 3073) — BNIP3L mRNA, set 1: 0.145
CABP2 (GeneID 51475) — BNIP3L mRNA, set 1: 0.159
MED17 (GeneID 9440) — BNIP3L mRNA, set 1: 0.168
TRIM36 (GeneID 55521) — BNIP3L mRNA, set 1: 0.118
OR1E1 (GeneID 8387) — BNIP3L mRNA, set 1: 0.224
CLASRP (GeneID 11129) — BNIP3L mRNA, set 1: 0.157
ZNF512 (GeneID 84450) — BNIP3L mRNA, set 1: 0.0959
KRTAP5-9 (GeneID 3846) — BNIP3L mRNA, set 1: 0.186
HIF3A (GeneID 64344) — BNIP3L mRNA, set 1: 0.0654
ADGRE5 (GeneID 976) — BNIP3L mRNA, set 1: 0.154
MKRN1 (GeneID 23608) — BNIP3L mRNA, set 1: 0.166
ST6GALNAC5 (GeneID 81849) — BNIP3L mRNA, set 1: 0.142
CSNK1A1L (GeneID 122011) — BNIP3L mRNA, set 1: 0.0548
USP26 (GeneID 83844) — BNIP3L mRNA, set 1: 0.0579
GPATCH4 (GeneID 54865) — BNIP3L mRNA, set 1: 0.161
IGF2BP1 (GeneID 10642) — BNIP3L mRNA, set 1: 0.136

In a second layout: entries from further up
target,"BNIP3L mRNA, set 1"
GOLGA6B (GeneID 55889),0.13
HEXA (GeneID 3073),0.145

Further results follow:
MAN1C1 (GeneID 57134) — BNIP3L mRNA, set 1: 0.168
POLE3 (GeneID 54107) — BNIP3L mRNA, set 1: 0.183
PHKB (GeneID 5257) — BNIP3L mRNA, set 1: 0.0525
DNAJC2 (GeneID 27000) — BNIP3L mRNA, set 1: 0.0719
TLR6 (GeneID 10333) — BNIP3L mRNA, set 1: 0.155
TNFRSF4 (GeneID 7293) — BNIP3L mRNA, set 1: 0.0653
PFKM (GeneID 5213) — BNIP3L mRNA, set 1: 0.103
DMRTA1 (GeneID 63951) — BNIP3L mRNA, set 1: 0.168
MAFB (GeneID 9935) — BNIP3L mRNA, set 1: 0.105
NPFF (GeneID 8620) — BNIP3L mRNA, set 1: 0.133
